Measured values reported in patent US20100129369A1.
These are yes or no findings as the source states them, for the method shown. Some binding calls cover weakened binding; strength is not graded here.

Protein sequences, listed by entry. Tags and fused reporters are not part of them. Lines headed by an entry give the natural chain unless they say otherwise; changes in a name come on top.
UniProt P08581: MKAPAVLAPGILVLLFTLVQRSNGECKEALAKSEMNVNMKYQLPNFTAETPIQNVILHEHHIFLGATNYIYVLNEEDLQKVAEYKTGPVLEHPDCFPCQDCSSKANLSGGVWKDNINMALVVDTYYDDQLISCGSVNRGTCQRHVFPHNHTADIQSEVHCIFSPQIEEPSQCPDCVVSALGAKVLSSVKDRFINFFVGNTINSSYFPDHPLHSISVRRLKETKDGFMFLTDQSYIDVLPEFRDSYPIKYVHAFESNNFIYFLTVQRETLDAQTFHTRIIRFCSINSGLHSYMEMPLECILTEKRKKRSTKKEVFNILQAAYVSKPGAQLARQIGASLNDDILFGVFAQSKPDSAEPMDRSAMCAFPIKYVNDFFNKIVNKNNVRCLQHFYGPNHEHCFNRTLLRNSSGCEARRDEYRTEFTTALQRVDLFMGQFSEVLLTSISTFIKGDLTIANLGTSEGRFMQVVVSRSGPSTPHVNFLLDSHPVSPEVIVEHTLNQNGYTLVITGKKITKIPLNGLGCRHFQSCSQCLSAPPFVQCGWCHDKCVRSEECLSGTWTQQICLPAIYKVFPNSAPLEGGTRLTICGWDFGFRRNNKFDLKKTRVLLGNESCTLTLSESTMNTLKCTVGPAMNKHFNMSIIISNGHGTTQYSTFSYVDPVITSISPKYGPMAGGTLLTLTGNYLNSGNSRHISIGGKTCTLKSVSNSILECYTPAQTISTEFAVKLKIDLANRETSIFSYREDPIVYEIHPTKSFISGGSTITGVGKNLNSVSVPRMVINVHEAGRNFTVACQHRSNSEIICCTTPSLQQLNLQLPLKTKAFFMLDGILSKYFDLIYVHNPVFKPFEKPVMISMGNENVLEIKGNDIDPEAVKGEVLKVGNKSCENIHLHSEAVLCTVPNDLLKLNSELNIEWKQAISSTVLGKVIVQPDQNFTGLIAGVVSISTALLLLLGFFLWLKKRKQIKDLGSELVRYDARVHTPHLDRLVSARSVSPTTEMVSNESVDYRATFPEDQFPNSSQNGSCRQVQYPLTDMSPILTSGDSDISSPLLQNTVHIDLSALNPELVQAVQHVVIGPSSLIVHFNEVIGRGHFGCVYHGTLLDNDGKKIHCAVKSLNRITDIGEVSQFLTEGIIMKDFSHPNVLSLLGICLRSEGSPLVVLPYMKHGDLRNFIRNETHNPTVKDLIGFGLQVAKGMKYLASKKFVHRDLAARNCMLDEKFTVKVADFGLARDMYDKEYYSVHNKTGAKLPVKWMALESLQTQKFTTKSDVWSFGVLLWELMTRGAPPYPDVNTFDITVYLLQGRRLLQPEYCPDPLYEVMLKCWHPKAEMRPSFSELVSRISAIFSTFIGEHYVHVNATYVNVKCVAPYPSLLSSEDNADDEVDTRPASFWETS

How the values were obtained:
[1] = target: Cynomolgus Monkey c-Met-Flis-Fc ECD (cynomolgus monkey); assay: SPR Biacore
[2] = target: Human c-Met-Flis-Fc ECD (human); assay: SPR Biacore
[3] = target: Human c-Met Sema Domain with Flis tag (human) (UniProt P08581); assay: method not given
[4] = target: Human c-Met-Flis-Fc ECD (human); assay: ELISA, coated ECD-Fc

Measured: binding

B1: C8-6 (antibody, human IgG2, kappa, V domains shown)
VH: QVQLVQSGAEVKKPGASVKVSCKASGYTFTDYYMHWVRQAPGQGLEWMGRVNPNRGGTTYNQKFEGRVTMTTDTSTSTAYMELRSLRSDDTAVYYCARTNWLDYWGQGTTVTVSS
VL: DIQMTQSPSSLSASVGDRVTITCSVSSSVSSIYLHWYQQKPGKAPKLLIYSTSNLASGVPSRFSGSGSGTDFTLTISSLQPEDFATYYCIQYSGYPLTFGGGTKVEIKR
binds: all assays above

B2: C8-co-16 (antibody, human IgG2, kappa, V domains shown)
VH: QVQLVQSGAEVKKPGASVKVSCKASGYTFTDYYMHWVRQAPGQGLEWMGRVNPYRGSTTYNQKFEGRVTMTTDTSTSTAYMELRSLRSDDTAVYYCARANILDYWGQGTTVTVSS
VL: DIQMTQSPSSLSASVGDRVTITCSVSSSVRSIYLHWYQQKPGKAPKLLIYSTSNLASGVPSRFSGSGSGTDFTLTISSLQPEDFATYYCQVYRGYPLTFGGGTKVEIKR
binds: all assays above
